From article PMC10187114

Sequences of proteins named here, by UniProt entry; tags and fusion partners are left off. Residues count along the entry.
UniProt Q8N668: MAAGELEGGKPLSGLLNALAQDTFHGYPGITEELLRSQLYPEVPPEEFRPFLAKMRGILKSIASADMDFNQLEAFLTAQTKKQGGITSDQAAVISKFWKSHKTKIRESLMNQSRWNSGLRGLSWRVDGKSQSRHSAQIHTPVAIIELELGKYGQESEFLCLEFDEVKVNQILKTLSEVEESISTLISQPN
UniProt Q9Y6G5, residues 12-202: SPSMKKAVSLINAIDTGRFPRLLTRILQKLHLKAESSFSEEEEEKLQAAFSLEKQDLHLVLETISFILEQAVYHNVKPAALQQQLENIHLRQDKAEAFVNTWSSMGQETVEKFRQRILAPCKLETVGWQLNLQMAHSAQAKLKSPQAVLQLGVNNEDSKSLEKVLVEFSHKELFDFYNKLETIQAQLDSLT
UniProt Q86X83: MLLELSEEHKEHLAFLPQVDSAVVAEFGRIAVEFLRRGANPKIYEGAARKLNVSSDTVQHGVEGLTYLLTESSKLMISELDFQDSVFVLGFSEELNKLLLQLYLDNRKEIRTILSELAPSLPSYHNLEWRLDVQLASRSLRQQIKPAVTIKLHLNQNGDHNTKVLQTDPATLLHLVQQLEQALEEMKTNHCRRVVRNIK
UniProt Q7Z4G1: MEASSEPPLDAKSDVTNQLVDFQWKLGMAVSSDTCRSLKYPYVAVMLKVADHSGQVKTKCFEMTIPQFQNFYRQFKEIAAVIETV
UniProt Q86VX2: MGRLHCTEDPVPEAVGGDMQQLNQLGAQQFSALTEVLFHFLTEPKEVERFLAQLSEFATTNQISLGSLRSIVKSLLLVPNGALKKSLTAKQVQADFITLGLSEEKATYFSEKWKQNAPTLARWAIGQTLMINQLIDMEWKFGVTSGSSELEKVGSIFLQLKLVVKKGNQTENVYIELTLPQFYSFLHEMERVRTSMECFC
UniProt Q9NX08: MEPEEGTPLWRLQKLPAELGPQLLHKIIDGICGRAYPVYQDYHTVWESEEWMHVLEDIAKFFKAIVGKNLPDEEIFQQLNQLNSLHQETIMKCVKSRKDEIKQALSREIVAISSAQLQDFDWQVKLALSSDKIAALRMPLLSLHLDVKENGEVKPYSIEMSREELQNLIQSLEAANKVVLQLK
UniProt Q9H0A8: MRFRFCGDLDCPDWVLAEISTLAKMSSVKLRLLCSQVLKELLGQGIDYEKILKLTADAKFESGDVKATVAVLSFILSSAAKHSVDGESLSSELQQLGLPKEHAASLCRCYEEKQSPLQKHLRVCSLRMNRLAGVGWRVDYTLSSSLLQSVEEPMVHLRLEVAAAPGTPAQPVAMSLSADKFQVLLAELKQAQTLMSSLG

Key:
Test in all cases: affinity purification with mass spectrometry; ten human COMMD proteins co-expressed in E. coli, one His-tagged; Talon, gel filtration, anion exchange, peptide mass spectrometry
[1] = target: COMMD1-His (human) (UniProt Q8N668)
[2] = target: COMMD10-His (human) (UniProt Q9Y6G5)
[3] = target: COMMD2-His (human) (UniProt Q86X83)

Substance | binding [1] | binding [2] | binding [3]
COMMD6 (E. coli) (from UniProt Q7Z4G1 1-85) | binds | – | –
COMMD7 (E. coli) (from UniProt Q86VX2 1-200) | – | binds | –
COMMD8 (E. coli) (from UniProt Q9NX08 1-183) | binds | – | binds
COMMD4 (E. coli) (from UniProt Q9H0A8 1-199) | binds | – | binds

Results are given in words; binding and its absence hold for the method and conditions named. In cells and extracts the contact can be indirect. Here binding means that the protein was enriched with, or labelled near, the bait; the list need not be complete.
